Experimental data reported in the odorant receptor screen of Mainland et al. (2015).
Some of the results follow. Each value is one well over the wells without odorant, computed here; the data are noisy.

System: OR1L1 clone 1379
Assay: odorant receptor activation (CRE luciferase / Renilla) (fold of no-odor wells); higher = more activation
Conditions: 100 µM

Row | Structure (SMILES) | odorant receptor activation
1 | CCCCCCCCC=O [nonyl aldehyde] | 0.961
2 | CC12C=CCC1C1CCC3CC(=O)CCC3(C)C1CC2 (centres undefined) [androstenone] | 0.732
3 | CCCCCCCCOC(C)=O [octyl acetate] | 0.982
4 | CCCCCC(C)=O [2-heptanone] | 0.929
5 | COc1ccccc1O [guaiacol] | 0.752
6 | CC(=O)OCC=C(C)CCC=C(C)C [geranyl acetate] | 0.994
7 | CC1COCc2cc3c(cc21)C(C)(C)C(C)C3(C)C (centres undefined) [galaxolide] | 2.89
8 | C=CCc1ccc(OC)c(OC)c1 [eugenol methyl ether] | 1.71
9 | CC(=O)OC1CC2CCC1(C)C2(C)C (centres undefined) [isobornyl acetate] | 0.802
10 | O=C1CCCCCCCCCCCC(=O)OCCO1 [ethylene brassylate] | 2.37
11 | O=C1CCCCC1 [Cyclohexanone] | 0.878
12 | CC(C)(C)c1ccc(CCC=O)cc1 [bourgeonal] | 0.187
13 | CCC1(O)C2(C)CCC(C2)C1(C)C (centres undefined) [2-ethylfenchol] | 1.07
14 | COC(=O)c1ccccc1 [methyl benzoate] | 0.878
15 | CC12CCC(CC1)C(C)(C)O2 [cineole] | 0.209
16 | CC1=NC(C)SC1C (centres undefined) | 1.04
17 | CC=Cc1ccc(O)c(OC)c1 [isoeugenol] | 1.31
18 | CCCCCOC(C)=O [n-amyl acetate] | 0.78
19 | c1cnccn1 [pyrazine] | 1.26
20 | C=C(C)C1CC=C(C)C(=O)C1 (centres undefined) [r-carvone] | 1.6
21 | C=CC(C)(O)CCC=C(C)C (centres undefined) [linalool] | 0.947
22 | CC(C)=CCCC(C)=CC=O [citral] | 0.288
23 | CC(=O)c1ccccc1 [acetophenone] | 0.865
24 | CCCCCC(=O)O [caproic acid] | 0.22
25 | CCCCCCOC(=O)CCC [hexyl butyrate] | 0.65
26 | CC1CCC(C(C)C)C(O)C1 (single isomer, unassigned; (+)) [(+)-menthol] | 0.972
27 | CC(C)CCC(=O)O [4-methylvaleric acid] | 0.925
28 | CC12C=CCC1C1CCC3=CC(=O)CCC3(C)C1CC2 (centres undefined) [androstadienone] | 0.859

System: OR1L3 clone 1090
Assay: as above
Conditions: 100 µM

Row | Structure (SMILES) | odorant receptor activation
29 | CCCCCCCCC=O [nonyl aldehyde] | 0.894
30 | CC12C=CCC1C1CCC3CC(=O)CCC3(C)C1CC2 (centres undefined) [androstenone] | 16.9
31 | CCCCCCCCOC(C)=O [octyl acetate] | 1.21
32 | CCCCCC(C)=O [2-heptanone] | 1.07
33 | COc1ccccc1O [guaiacol] | 1.66
34 | CC(=O)OCC=C(C)CCC=C(C)C [geranyl acetate] | 1.48
35 | CC1COCc2cc3c(cc21)C(C)(C)C(C)C3(C)C (centres undefined) [galaxolide] | 4.11
36 | C=CCc1ccc(OC)c(OC)c1 [eugenol methyl ether] | 1.32
37 | CC(=O)OC1CC2CCC1(C)C2(C)C (centres undefined) [isobornyl acetate] | 1.09
38 | O=C1CCCCCCCCCCCC(=O)OCCO1 [ethylene brassylate] | 1.31
39 | O=C1CCCCC1 [Cyclohexanone] | 2.15
40 | CC(C)(C)c1ccc(CCC=O)cc1 [bourgeonal] | 0.847
41 | CCC1(O)C2(C)CCC(C2)C1(C)C (centres undefined) [2-ethylfenchol] | 28.7
42 | COC(=O)c1ccccc1 [methyl benzoate] | 0.931
43 | CC12CCC(CC1)C(C)(C)O2 [cineole] | 0.773
44 | CC1=NC(C)SC1C (centres undefined) | 1.08
45 | CC=Cc1ccc(O)c(OC)c1 [isoeugenol] | 1.75
46 | CCCCCOC(C)=O [n-amyl acetate] | 2.11
47 | c1cnccn1 [pyrazine] | 1.21
48 | C=C(C)C1CC=C(C)C(=O)C1 (centres undefined) [r-carvone] | 1.28
49 | C=CC(C)(O)CCC=C(C)C (centres undefined) [linalool] | 1.23
50 | CC(C)=CCCC(C)=CC=O [citral] | 1.05
51 | CC(=O)c1ccccc1 [acetophenone] | 1.03
52 | CCCCCC(=O)O [caproic acid] | 1.01
53 | CCCCCCOC(=O)CCC [hexyl butyrate] | 0.799
54 | CC1CCC(C(C)C)C(O)C1 (single isomer, unassigned; (+)) [(+)-menthol] | 37.5
55 | CC(C)CCC(=O)O [4-methylvaleric acid] | 16
56 | CC12C=CCC1C1CCC3=CC(=O)CCC3(C)C1CC2 (centres undefined) [androstadienone] | 1.4

System: OR1L4 G234R clone 1102
Assay: as above
Conditions: 100 µM

Row | Structure (SMILES) | odorant receptor activation
57 | CCCCCCCCC=O [nonyl aldehyde] | 0.88
58 | CC12C=CCC1C1CCC3CC(=O)CCC3(C)C1CC2 (centres undefined) [androstenone] | 13.5
59 | CCCCCCCCOC(C)=O [octyl acetate] | 1.07
60 | CCCCCC(C)=O [2-heptanone] | 0.739
61 | COc1ccccc1O [guaiacol] | 1.54
62 | CC(=O)OCC=C(C)CCC=C(C)C [geranyl acetate] | 2.97
63 | CC1COCc2cc3c(cc21)C(C)(C)C(C)C3(C)C (centres undefined) [galaxolide] | 3.75
64 | C=CCc1ccc(OC)c(OC)c1 [eugenol methyl ether] | 1.75
65 | CC(=O)OC1CC2CCC1(C)C2(C)C (centres undefined) [isobornyl acetate] | 0.948
66 | O=C1CCCCCCCCCCCC(=O)OCCO1 [ethylene brassylate] | 1.69
67 | O=C1CCCCC1 [Cyclohexanone] | 2.24
68 | CC(C)(C)c1ccc(CCC=O)cc1 [bourgeonal] | 0.792
69 | CCC1(O)C2(C)CCC(C2)C1(C)C (centres undefined) [2-ethylfenchol] | 31.3
70 | COC(=O)c1ccccc1 [methyl benzoate] | 1.59
71 | CC12CCC(CC1)C(C)(C)O2 [cineole] | 0.953
72 | CC1=NC(C)SC1C (centres undefined) | 0.854
73 | CC=Cc1ccc(O)c(OC)c1 [isoeugenol] | 1.77
74 | CCCCCOC(C)=O [n-amyl acetate] | 1.78
75 | c1cnccn1 [pyrazine] | 1.07
76 | C=C(C)C1CC=C(C)C(=O)C1 (centres undefined) [r-carvone] | 0.775
77 | C=CC(C)(O)CCC=C(C)C (centres undefined) [linalool] | 1.11
78 | CC(C)=CCCC(C)=CC=O [citral] | 1.31
79 | CC(=O)c1ccccc1 [acetophenone] | 1.18
80 | CCCCCC(=O)O [caproic acid] | 1.2
81 | CCCCCCOC(=O)CCC [hexyl butyrate] | 1.04
82 | CC1CCC(C(C)C)C(O)C1 (single isomer, unassigned; (+)) [(+)-menthol] | 23.4
83 | CC(C)CCC(=O)O [4-methylvaleric acid] | 10.1
84 | CC12C=CCC1C1CCC3=CC(=O)CCC3(C)C1CC2 (centres undefined) [androstadienone] | 1.8
